This note sets out measurements from patent US5965700 (dated 1999).

The series in a line: general procedure: solution-phase peptide synthesis. The conditions noted are these: coupling step, HCl.

In turn, Val-MeVal-Pro-Pro-NHBz×HCl yielded a step yield of 74.1%.
